The text below walks through data of publication PMC6961209.

No constants are given. Whether binding was seen depends on the method and setting. A result given as binding can be weak or reduced; the word gives no strength.

In the assay the target is Microtubules polymerised from bovine tubulin (Cytoskeleton Inc.) (bovine). Briefly: cryo-EM structure; paclitaxel-stabilised bovine tubulin MTs adhered to holey carbon grids, washed once in 60 uM MKLP2-MD in BRB20 with 2 mM ADP + AlF4, room temperature; 13 PF reconstruction with MiRP; both purified.

B1: Recombinant mouse MKLP2 residues 25-520 including the motor domain and neck-linker (domain or fragment, UniProt P97329 25-520)
chain: ESTAADLRSVVRKDLLSDCSVISASLEDKQALLEDTSEKVKVYLRIRPFLTSELDRQEDQGCVCIENTETLVLQAPKDSFALKSNERGVGQATHKFTFSQIFGPEVGQVAFFNLTMKEMVKDVLKGQNWLIYTYGVTNSGKTYTIQGTSKDAGILPQSLALIFNSLQGQLHPTPDLKPLLSNEVIWLDSKQIRQEEMKKLSLLIGGLQEEELSTSVKKRVHTESRIGASNSFDSGVAGLSSTSQFTSSSQLDETSQLWAQPDTVPVSVPADIRFSVWISFFEIYNELLYDLLEPPSHQHKRQTLRLCEDQNGNPYVKDLNWIHVRDVEEAWKLLKVGRKNQSFASTHMNQQSSRSHSIFSIRILHLQGEGDIVPKISELSLCDLAGSERCKHQKSGERLKEAGNINTSLHTLGRCIAALRQNQQNRSKQNLIPFRDSKLTRVFQGFFTGRGRSCMIVNVNPCASTYDETLHAAKFSALASQLVHAPPVHLGIPSLH
In the case of B1, the binding entry is “binds”.
